The test concerns the target T1, CASK-β, full-length wild type, tagged with a C-terminal YFP (Drosophila) (UniProt Q24210).
T1 sequence: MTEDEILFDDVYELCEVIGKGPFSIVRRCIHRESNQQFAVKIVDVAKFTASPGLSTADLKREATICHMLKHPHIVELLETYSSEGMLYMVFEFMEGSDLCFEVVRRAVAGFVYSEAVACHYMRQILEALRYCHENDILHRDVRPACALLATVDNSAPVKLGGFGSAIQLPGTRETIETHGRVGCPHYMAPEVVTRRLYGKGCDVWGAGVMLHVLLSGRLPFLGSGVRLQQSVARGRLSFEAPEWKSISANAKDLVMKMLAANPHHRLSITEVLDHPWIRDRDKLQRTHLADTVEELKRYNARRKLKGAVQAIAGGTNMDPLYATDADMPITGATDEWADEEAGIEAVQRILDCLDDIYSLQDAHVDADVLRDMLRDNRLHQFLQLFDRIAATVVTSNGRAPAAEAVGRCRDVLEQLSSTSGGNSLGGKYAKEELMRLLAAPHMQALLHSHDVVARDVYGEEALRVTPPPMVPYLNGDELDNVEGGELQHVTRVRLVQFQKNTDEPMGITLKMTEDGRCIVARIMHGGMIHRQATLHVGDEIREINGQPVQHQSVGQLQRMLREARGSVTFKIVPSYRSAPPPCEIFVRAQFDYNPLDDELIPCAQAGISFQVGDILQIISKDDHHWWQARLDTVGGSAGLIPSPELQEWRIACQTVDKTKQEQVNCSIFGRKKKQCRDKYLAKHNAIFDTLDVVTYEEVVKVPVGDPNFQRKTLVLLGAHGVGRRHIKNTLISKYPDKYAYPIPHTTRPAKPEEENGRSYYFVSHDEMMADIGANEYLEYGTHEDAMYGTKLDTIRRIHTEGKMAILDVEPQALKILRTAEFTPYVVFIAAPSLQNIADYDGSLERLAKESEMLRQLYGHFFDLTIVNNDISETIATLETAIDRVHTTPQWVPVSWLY
As to the kind of experiment: affinity purification with mass spectrometry; as a1, but CASK-YFP expressed with C164-GAL4 (a subset of adult neurons).

These are yes or no findings as the source states them, for the method shown. Binding seen in cells or lysates may run through a third protein. A yes stands for co-enrichment or nearness to the bait. Other partners may have been found. Where a sequence is shown, tags or fusion partners need not be part of it.

B1: NK3 (protein, UniProt P22809 1-382)
chain: MLNMESAGVSAAMAGLSKSLTTPFSINDILTRSNPETRRMSSVDSEPEPEKLKPSSDRERSISKSPPLCCRDLGLYKLTQPKEIQPSARQPSNYLQYYAAAMDNNNHHHQATGTSNSSAADYMQRKLAYFGSTLAAPLDMRRCTSNDSDCDSPPPLSSSPSESPLSHDGSGLSRKKRSRAAFSHAQVFELERRFAQQRYLSGPERSEMAKSLRLTETQVKIWFQNRRYKTKRKQIQQHEAALLGASKRVPVQVLVREDGSTTYAHMAAPGAGHGLDPALINIYRHQLQLAYGGLPLPQMQMPFPYFYPQHKVPQPIPPPTQSSSFVTASSASSSPVPIPIPGAVRPQRTPCPSPNGQMMSVESGAESVHSAAEDVDENVEID
For the molecule B1, the binding entry was “binds”.

B2: EIF3-S10 (protein, UniProt Q9VN25 1-1140)
chain: MARYTQRPENALKRANEFIEVGKPLRALDTLQEVFRNKRWNYAYSETVIEPLMFKYLYLCVELKKSHIAKEGLFQYRNMFQLVNVNSLENVIRGYLKMAEEHTEAAQAQSSAAVAVLELDDLDNIATPESILMSAVCGEDAQDRSDRTILLPWVKFLWESYCQCLELLRVNTHCEALYHDIARMAFQFCLKYNRKSEFRRLCDKLRKHLEDICKSSNQTTGVSINKVETQQLCLDTRLYLLDSAIQMELWQEAYKAIEDIHGLMALSKKTPVPKTMANYYQKLAMVFSKAGNQLFHAAALLKLFQLTRELKKNLTKDDLQRMAAHVLLATLSIPLPSAHPEFDRFIEADKSPLEKAQKLAVLLGLPQPPTRVSLIREVVRLNVPQLVSEDFRNLYNWLEVDFNPLNLCKRIQSIVDFIENGPENALLTPYIQSLKDVTIMRLIRQISQVYESIKFQRLLQLASFCNIFELEKLLVESVRHNDMQIRIDHQKNSIYFGTDLTESQREYRPDGPALQSMPSEQIRSQLVNMSTVLTRAVSIVYPNRERDQRAKLRNQMVNHYHEIKDREHQRILQRQKIIEDRKEYIEKQNNAREEEEARRQEEESRKAKLAEQKRLEQEQEERERKRHQNEIQAIREKSLKEKVQQISQTAHGKKMLSKLDEEGIKKLDAEQIAKRESEELQREAKELQSKLKSQEKKIDYFERAKRLEEIPLFEKYLAEKQVKDKEFWEATEKTRIENAIAERKDAVAQQERLKRMYPDRDEFLEALKKERASLYVEKLKKFEAALEAERKKRLADRIIRRREERRQAFLREKEEERLRKEEEIRLAQAAEERAAAEARRLEREAEDEKRRAQYEKQRAKEEEAERKIKEDRDRLSRELASERERTEKDRDTWRPRGGDRPSASNGGSSEWRRAAPAASERNDRGGERIERGGERIERGGERLERGGERIERGGDRDRKDNEGADSSWRVRREPDSQRAAAPKDSGAPQSRDDKWRRGGERDRDFRIDGARRDRDDGPRRDRDDGPRRDRDDERGGFRRADGARRTDEPQRETGGNWRDAPRHADRETRRPAERRDRDVRETRGDQRGSAPKEAASGGVGGNWRTAPATREEKPAAKRDQAQEKENKAGDDGEWTSVKRR
Consider B2, for which the binding entry was “binds”.

B3: ALPHA-ADAPTIN (protein, UniProt P91926 1-940)
chain: MAPVRGDGMRGLAVFISDIRNCKSKEAEVKRINKELANIRSKFKGDKTLDGYQKKKYVCKLLFIFLLGHDIDFGHMEAVNLLSSNKYSEKQIGYLFISVLVNTNSDLIRLIIQSIKNDLQSRNPVHVNLALQCIANIGSRDMAESFSNEIPKLLVSGDTMDVVKQSAALCLLRLFRSSPDIIPGGEWTSRIIHLLNDQHMGVVTAATSLIDALVKRNPDEYKGCVNLAVSRLSRIVTASYTDLQDYTYYFVPAPWLSVKLLRLLQNYNPVTEEAGVRARLNETLETILNKAQEPPKSKKVQHSNAKNAVLFEAINLIIHSDSEPNLLVRACNQLGQFLSNRETNLRYLALESMCHLATSEFSHEEVKKHQEVVILSMKMEKDVSVRQMAVDLLYAMCDRGNAEEIVQEMLNYLETADYSIREEMVLKVAILAEKYATDYTWYVDVILNLIRIAGDYVSEEVWYRVIQIVINREEVQGYAAKTVFEALQAPACHENMVKVGGYILGEFGNLIAGDSRSAPLVQFKLLHSKYHLCSPMTRALLLSTYIKFINLFPEIRTNIQDVFRQHSNLRSADAELQQRASEYLQLSIVASTDVLATVLEEMPSFPERESSILAVLKKKKPGRVPENEIRESKSPAPLTSAAQNNALVNNSHSKLNNSNANTDLLGLSTPPSNNIGSGSNSNSTLIDVLGDMYGSNSNNNSSAVYNTKKFLFKNNGVLFENEMLQIGVKSEFRQNLGRLGLFYGNKTQVPLTNFNPVLQWSAEDALKLNVQMKVVEPTLEAGAQIQQLLTAECIEDYADAPTIEISFRYNGTQQKFSIKLPLSVNKFFEPTEMNAESFFARWKNLSGEQQRSQKVFKAAQPLDLPGARNKLMGFGMQLLDQVDPNPDNMVCAGIIHTQSQQVGCLMRLEPNKQAQMFRLTVRASKETVTREICDLLTDQF
With B3, the binding entry was “binds”.

B4: AGO2 (protein, UniProt Q9VUQ5 1-1214)
chain: MGKKDKNKKGGQDSAAAPQPQQQQKQQQQRQQQPQQLQQPQQLQQPQQLQQPQQQQQQQPHQQQQQSSRQQPSTSSGGSRASGFQQGGQQQKSQDAEGWTAQKKQGKQQVQGWTKQGQQGGHQQGRQGQDGGYQQRPPGQQQGGHQQGRQGQEGGYQQRPPGQQQGGHQQGRQGQEGGYQQRPSGQQQGGHQQGRQGQEGGYQQRPPGQQQGGHQQGRQGQEGGYQQRPSGQQQGGHQQGRQGQEGGYQQRPPGQQQGGHQQGRQGQEGGYQQRPPGQQQGGHEQGRQGQEGGYQQRPSGQQQGGHQQGRQGQEGGYQQRPSGQQQGGHQQGRQGQEGGYQQRPSGQQQGGHQQGRQGQEGGYQQRPPGQQPNQTQSQGQYQSRGPPQQQQAAPLPLPPQPAGSIKRGTIGKPGQVGINYLDLDLSKMPSVAYHYDVKIMPERPKKFYRQAFEQFRVDQLGGAVLAYDGKASCYSVDKLPLNSQNPEVTVTDRNGRTLRYTIEIKETGDSTIDLKSLTTYMNDRIFDKPMRAMQCVEVVLASPCHNKAIRVGRSFFKMSDPNNRHELDDGYEALVGLYQAFMLGDRPFLNVDISHKSFPISMPMIEYLERFSLKAKINNTTNLDYSRRFLEPFLRGINVVYTPPQSFQSAPRVYRVNGLSRAPASSETFEHDGKKVTIASYFHSRNYPLKFPQLHCLNVGSSIKSILLPIELCSIEEGQALNRKDGATQVANMIKYAATSTNVRKRKIMNLLQYFQHNLDPTISRFGIRIANDFIVVSTRVLSPPQVEYHSKRFTMVKNGSWRMDGMKFLEPKPKAHKCAVLYCDPRSGRKMNYTQLNDFGNLIISQGKAVNISLDSDVTYRPFTDDERSLDTIFADLKRSQHDLAIVIIPQFRISYDTIKQKAELQHGILTQCIKQFTVERKCNNQTIGNILLKINSKLNGINHKIKDDPRLPMMKNTMYIGADVTHPSPDQREIPSVVGVAASHDPYGASYNMQYRLQRGALEEIEDMFSITLEHLRVYKEYRNAYPDHIIYYRDGVSDGQFPKIKNEELRCIKQACDKVGCKPKICCVIVVKRHHTRFFPSGDVTTSNKFNNVDPGTVVDRTIVHPNEMQFFMVSHQAIQGTAKPTRYNVIENTGNLDIDLLQQLTYNLCHMFPRCNRSVSYPAPAYLAHLVAARGRVYLTGTNRFLDLKKEYAKRTIVPEFMKKNPMYFV
On to B4, for which the binding entry was “binds”.

B5: EIF3-S9 (protein, UniProt Q0E940 1-690)
chain: MAKKKSEEHSGTDANDSDYQEEPNFDDPPGFVDNISDEDLLGDMLAQRPSEADGVESVVVVDNIPKVEPVRLEKLKLVINKLFSNYGEIVNVVYPVDEEGKTKGYAFMEYKQARQAEEAVKKLNNHRLDKNHTFAVNLFTDFQKYENIPEKWEPPTVQTFKVQSDLYNFINDPDTYDQYCVAAETAPNCVQVGFWQNVLPEPFELETRERFTDTFVKWSPLGTYVVTFHKPGVAIWGGSSFQKIQKFPHPGTQFVEFSPCENYLVTYGPTPTGQKIIIWDIRTGAEKRSFVADGMSVLSMFRWSHDDKFVARMGENSIHIYETPSFYLLDLKSIKIPGIRGFSWSPTDNVIAYWVEEQNQIPARVTLMEIPKKREIRNKNLFHVADCKLHWQKSGDYLCVKVDRYSKLKKDKKDLDVKFLGMFYNFEIFHMREKEIPVDSVEIRELILAFAWEPVGNKFSIIHGETNSSNVSFYEVNKGVKPSLVKRLEKKSCTHLFWSPRGQFIVMANLTMGTFEFVDSTNDYIITASPDHFRASEVEWDPTGRYVVTGVSSWKVKEDTGFNMYTFQGRIIKRTILKNFVQFLWRPRPPTLLSEEKQKEIKKNLKKYYAAFEQKDRLRLTRASKELLEKRSQLRETFMEYRNKRIAEWAEQKSRRIMLRGHVDTDNLETDEVDEEIVEFLVKEEVTLLE
For the molecule B5, the binding entry is on record as “binds”.

For the origin of these results see publication PMC4075472.
